Test results published in patent publication US20070292434A1 (VIB VZW, published 2007).
Results are given in words; binding and its absence hold for the method and conditions named. For some of these results: Binding seen in cells or lysates may run through a third protein. Some results given as binding are weak or reduced against the parent protein; the word gives no strength. For some of these results: Where a sequence is shown, tags or fusion partners need not be part of it. Values belong to the molecule of their own block, whether it stands above or below them.

Chains of the proteins cited; added tags and fusions are not shown. Lines headed by an entry give the natural chain unless they say otherwise; changes in a name come on top. Residues count along the entry.
UniProt P41160, residues 22-167: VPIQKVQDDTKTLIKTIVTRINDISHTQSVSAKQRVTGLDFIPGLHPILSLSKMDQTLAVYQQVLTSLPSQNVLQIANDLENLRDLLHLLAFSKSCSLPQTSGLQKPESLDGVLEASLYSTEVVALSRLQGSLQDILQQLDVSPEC

Columns and labels:
CRH2-FLAG-His (murine) = CRH2-FLAG-His (murine) (UniProt P48356); test: His/SEAP co-precipitation with metal affinity resin; seen only when both proteins were co-expressed in the same cell
[1] = target: wild-type murine leptin receptor (mLR), long isoform (murine) (UniProt P48356); test: leptin-SEAP binding to transfected Hek293T cells, alkaline phosphatase read-out
[2] = target: wild-type murine leptin receptor (mLR), long isoform (murine) (UniProt P48356); test: non-reducing SDS-PAGE and anti-FLAG Western blot of COS-1 lysates (self-association, disulphide-linked)
FNIII-FLAG-His (murine) = target: T1, FNIII-FLAG-His (murine) (UniProt P48356); test: His/SEAP co-precipitation with Ni2+ affinity resin from supernatants of co-transfected Hek293T cells
T1 sequence (looked up): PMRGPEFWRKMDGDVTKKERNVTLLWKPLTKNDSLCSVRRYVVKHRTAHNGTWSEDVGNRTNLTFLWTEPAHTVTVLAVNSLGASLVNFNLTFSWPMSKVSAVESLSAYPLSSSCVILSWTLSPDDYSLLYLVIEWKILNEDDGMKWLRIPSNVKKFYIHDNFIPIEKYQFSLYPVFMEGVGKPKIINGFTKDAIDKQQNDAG

Molecule: wild-type murine leptin receptor (mLR), long isoform (from UniProt P48356 22-1162)
binding [2]: binds

B1: FNIII-FLAG-His (receptor, murine, UniProt P48356 637-839, looked up, not shown: small tags and cut ends)
chain: T1 sequence (looked up)
notes: domain: FNIII domains; Secreted from COS-1 or Hek293T cells; runs as di-, tri- and higher order disulphide-linked clusters under non-reducing conditions; also called mLR FNIII-FLAG-His; soluble FNIII domains
binding (FNIII-FLAG-His (murine)): binds

Results, then the molecule that gave them:

binding (CRH2-FLAG-His (murine)): binds
Molecule: CRH2-SEAP-FLAG (from UniProt P48356 428-635) (receptor)

binding [1]: binds
Molecule: mouse leptin-SEAP chimeric protein (from UniProt P41160 22-167) (ligand)
